Measurements taken from PubChem BioAssay AID2685 (National Center for Advancing Translational Sciences (NCATS), 2010).
Some of the results follow. These are further read-outs of the screen, such as a control signal, another cell line or another target. No call is given for them. Compounds called inactive in the main read-out are mostly missing here. The note in brackets gives the kind of curve behind each potency; many fits are weak.

Test: qHTS Assay for Lipid Storage Modulators in Drosophila S3 Cells;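 as to cell number change: cells counted by Cell Tracker Red CMTPX staining in the red channel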
Settings: BODIPY lipid droplet fluorescence, 18-24 h; for cell number change: measured here: cell count max response, cells fed with added oleic acid
Method in brief: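 Drosophila S3 cells got compounds at several concentrations plus oleic acid (400 uM solution). Laser-scanning cytometry with 488 nm excitation read lipid droplets at 500-530 nm and cells at 575-640 nm. Percent activity was relative to 20 uM Triacsin C.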

[1] = measured here: lipid fluorescence (Fed channel) AC50, cells fed with added oleic acid
[2] = measured here: cell number channel AC50, cells fed with added oleic acid

Row | Structure (SMILES) | cell number change [%] | AC50 [1] | AC50 [2]
1 | Cc1cccc(C)c1N(CC(=O)N1CCCC1)S(C)(=O)=O | 12.1 | 6.51 µM [rising, single point] | 
2 | O=S(=O)(c1cc(F)ccc1F)N1CCC2(CC1)OCCN2S(=O)(=O)c1cccs1 | 7.45 | 0.164 µM [falling, full curve, poor fit] | 
3 | S=C1Cc2ccccc2C(c2ccc(Cl)cc2)N1 (stereo not drawn) | 19.2 | 0.00461 µM [rising, full curve, poor fit] | 
4 | C[C@H](NC(=O)C(c1ccccc1)c1ccccc1)c1ccccc1 | 1.42 | 3.26 µM [rising, single point] | 6.51 µM [rising, single point]
5 | Nc1nnc(Cc2ccc(Cl)c(Cl)c2)s1 |  | 5.8 µM [falling, partial curve] | 
6 | COc1ccc(CNC(=O)CCc2c(C)nc3cc(-c4ccccc4OC)nn3c2C)cc1 | 2.39 |  | 
7 | Cc1cccc(-c2noc(CN(C(=O)c3ccc4c(c3)OCO4)C(C)C)n2)c1 | -0.338 |  | 
8 | Cc1cc(C)n(-c2ccc(C(=O)Nc3cccnc3Cl)cc2)n1 |  |  | 0.517 µM [rising, single point]
9 | CCCCn1nnnc1NCc1ccc(OC)c(OC)c1OC | -17.4 |  | 
10 | CCOC(=O)CNC(=O)c1cn(C)c(=O)c2cc(OC)c(OC)cc12 | -14.7 |  | 
11 | O=C1c2ccccc2C(=O)c2c1cccc2N1CCCC1 | 12.8 |  | 6.51 µM [rising, partial curve, poor fit]
12 | CC(SCc1ccccc1)C(=O)N/N=C/c1ccc(OCC(=O)NCc2ccco2)cc1 (stereo not drawn) | 19.1 | 32.6 µM [falling, single point] | 
13 | CNc1cnn(-c2ccc(C)cc2)c(=O)c1Cl | -10.6 |  | 6.51 µM [falling, partial curve, poor fit]
14 | COc1ccc2c(c1OC)C(=O)N1C2SC(C)(C)[C@H]1C(=O)NCCCOC(C)C (stereo partly drawn) | 11.1 | 0.82 µM [rising, full curve, poor fit] | 
15 | Cc1ccc(-c2ccc(CCC(=O)O)n2-c2cccc(O)c2)cc1 | 7.05 | 0.0231 µM [falling, full curve, poor fit] | 
16 | CN1CCN(CCCNC(=O)c2ccc(/C=C3\Oc4ccccc4N(Cc4ccccc4F)C3=O)cc2)CC1 | 0.895 |  | 

Pulled one by one from the list above (2):
Row | Structure (SMILES) | cell number change [%] | AC50 [1] | AC50 [2]
5 | Nc1nnc(Cc2ccc(Cl)c(Cl)c2)s1 |  | 5.8 µM [falling, partial curve] | 
11 | O=C1c2ccccc2C(=O)c2c1cccc2N1CCCC1 | 12.8 |  | 6.51 µM [rising, partial curve, poor fit]

Further structures

Row | Structure (SMILES) | cell number change [%] | AC50 [1] | AC50 [2]
17 | O=C(COC(=O)c1cc([N+](=O)[O-])ccc1N1CCOCC1)c1ccccc1Cl | -23.1 | 29.1 µM [falling, single point] | 
18 | O=c1[nH]nc(Cc2ccc3ccccc3n2)c2ccccc12 | -35.8 |  | 
19 | CC1CCN(c2ccc3nnc(CCC(=O)NCC(C)c4ccccc4)n3n2)CC1 (stereo not drawn) | 16.8 | 29.1 µM [falling, single point] | 
20 | O=C(CNC(=S)NC(=O)c1ccc(Cl)cc1)c1ccccc1 | -12.8 | 0.461 µM [rising, full curve] | 
21 | COc1ccc(-c2cc3c(=O)n(CC(=O)NCc4cccnc4)ncn3n2)cc1 | 24.8 | 0.13 µM [falling, full curve, poor fit] | 
22 | CCOC(=O)C1CCN(C(=O)CC2C(=O)N(Cc3ccccc3)C(C)c3nc4ccccc4n32)CC1 (stereo not drawn) | -10 |  | 
23 | CC(C)NOC(=O)c1ccc(Cl)cc1 | -30.8 | 0.082 µM [falling, full curve, poor fit] | 1.46 µM [falling, partial curve]
24 | CCCC(C(=O)OCC)P(=O)(c1ccccc1)c1ccccc1 (stereo not drawn) | 1.04 | 1.16 µM [falling, full curve] | 1.3 µM [falling, partial curve, poor fit]
25 | Cc1c(C(=O)NCCN2CCOCC2)oc2ccccc12 |  |  | 3.66 µM [rising, single point]
26 | O=C(CSc1nnc(-c2cccnc2)n1-c1ccccc1)Nc1ccc2c(c1)OCO2 | 4.18 | 0.92 µM [rising, full curve, poor fit] | 
27 | Cc1cccc(C(=O)N[C@H](C(=O)Nc2ncc(C)s2)C(C)C)c1 |  | 1.64 µM [rising, single point] | 0.517 µM [rising, partial curve]
28 | Clc1cc(Cl)cc(C2=NCCC(c3ccccc3)O2)c1 (stereo not drawn) | 35.8 | 16.4 µM [rising, partial curve] | 18.4 µM [rising, single point]
29 | NS(=O)(=O)c1ccc(N2C(=O)C3CC=CCC3C2=O)cc1 (stereo not drawn) | -27 | 0.13 µM [falling, full curve, poor fit] | 
30 | O=C(NCc1cn(-c2ccccc2)nc1-c1ccccc1)c1ccc([N+](=O)[O-])cc1 | -28.2 | 20.6 µM [falling, single point] | 
31 | Cc1[nH]n(-c2ccccc2)c(=O)c1/C=N/N(c1ccccc1)c1ccccc1 | -24.3 | 29.1 µM [falling, single point] | 
32 | Cc1cc(C(=O)OCC(=O)c2cccs2)c2ccccc2n1 | 2.24 | 0.146 µM [falling, full curve, poor fit] | 
